Results: PubChem BioAssay AID256 (DTP/NCI, 2004)
The list shows only some results of the screen, not a fair sample: it is rich in T/C values a quarter to a half above the control, in often repeated tests (any T/C) and in doses without a T/C. Further doses and runs are listed elsewhere. T/C: endpoint of the treated group in % of that of the vehicle group. Some entries give survivors of the animals treated and no T/C: the source files T/C as zero there, which appears to mark a toxic dose or a test without result, not a measured value. Some doses without a T/C left all or most animals alive at the check, yet need not have been tolerated: the source hardly ever lists a survival T/C far under the control, and the zero likely stands for such cases as well. Survivors were counted at the toxicity check, usually on the fifth day, unless a day is given; later deaths do not show. Schedule codes are those of the source, taken here to give the interval after Q, in days (D) or hours (H), and the number of doses after X. Some entries were tested several times; the results are listed from low to high. Marks such as (2×) give the number of equal values in this list. Where survival is the endpoint, this PubChem deposit counts one and a half times the control or more as active, and values a quarter to a half above the control carry no call in these data; other NCI protocols may use other cut-offs. Some T/C values carry the count of animals alive at the toxicity check (mostly the fifth day); where none is given, no animal had died by that day. Some structures stand for samples that the source files as different forms (salt, stereo form or complex); doses refer to the form tested.

Tested on: CD2F1 mice, L1210 leukemia ip, survival T/C
Assay: NCI In Vivo Anticancer Drug Screen. Data for tumor model L1210 Leukemia (intraperitoneal) in CD2F1 (CDF1) mice
Conditions: higher T/C = longer survival
In short: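 Activity against a transplanted murine tumor was judged by comparing the compound group with a vehicle group. The outcome in the treated animals was divided by that in the controls.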

[1] = T/C endpoint: mean survival time, dose: 400.0 mg/kg/injection, schedule: Q01DX001 (ip), vehicle: saline
[2] = T/C endpoint: mean survival time, dose: 100.0 mg/kg/injection, schedule: Q01DX009 (ip), vehicle: saline with Tween-80
[3] = T/C endpoint: mean survival time, dose: 200.0 mg/kg/injection, schedule: Q01DX009 (ip), vehicle: saline with Tween-80
[4] = T/C endpoint: mean survival time, dose: 100.0 mg/kg/injection, schedule: Q01DX001 (ip), vehicle: saline with Tween-80
[5] = T/C endpoint: mean survival time, dose: 200.0 mg/kg/injection, schedule: Q01DX001 (ip), vehicle: saline with Tween-80
[6] = T/C endpoint: mean survival time, dose: 400.0 mg/kg/injection, schedule: Q01DX001 (ip), vehicle: saline with Tween-80
[7] = T/C endpoint: mean survival time, dose: 400.0 mg/kg/injection, schedule: Q04DX003 (ip), vehicle: saline with Tween-80
[8] = T/C endpoint: mean survival time, dose: 300.0 mg/kg/injection, schedule: Q01DX001 (ip), vehicle: other
[9] = T/C endpoint: mean survival time, dose: 100.0 mg/kg/injection, schedule: Q04DX002 (ip), vehicle: saline with Tween-80
[10] = T/C endpoint: mean survival time, dose: 200.0 mg/kg/injection, schedule: Q04DX002 (ip), vehicle: saline with Tween-80
[11] = T/C endpoint: mean survival time, dose: 400.0 mg/kg/injection, schedule: Q04DX002 (ip), vehicle: saline with Tween-80
[12] = T/C endpoint: mean survival time, dose: 300.0 mg/kg/injection, schedule: Q01DX001 (ip), vehicle: saline

c1cnc(N2CC2)nn1
T/C [1]: 125 % of control

O=C(O)c1cc2ccc(Cl)cc2c2cc(C(F)(F)F)ccc12
survivor count (T/C endpoint: mean survival time, dose: 75.0 mg/kg/injection, schedule: Q01DX009 (ip), vehicle: saline): 0 of 6 | survivor count (T/C endpoint: mean survival time, dose: 150.0 mg/kg/injection, schedule: Q04DX003 (ip), vehicle: saline): 3 of 6 | survivor count (T/C endpoint: mean survival time, dose: 300.0 mg/kg/injection, schedule: Q04DX003 (ip), vehicle: saline): 1 of 6

CCC1(O)C(=O)OCc2c1cc1n(c2=O)Cc2cc3ccc([N+](=O)[O-])cc3nc2-1 (configuration not stated)
T/C (T/C endpoint: median survival time, dose: 20.0 mg/kg/injection, schedule: Q04DX002 (ip), vehicle: saline with Tween-80): 125 % of control | T/C (T/C endpoint: median survival time, dose: 40.0 mg/kg/injection, schedule: Q04DX002 (ip), vehicle: saline with Tween-80): 133 % of control | T/C (T/C endpoint: median survival time, dose: 80.0 mg/kg/injection, schedule: Q04DX002 (ip), vehicle: saline with Tween-80): 147 % of control

C=C(Br)CNC(=O)OCCCC
survivor count [2]: 5 of 6 | survivor count [3]: 1 of 6

CCCCN(C)N=Nc1ccc(C(N)=O)cc1
survivor count (T/C endpoint: mean survival time, dose: 300.0 mg/kg/injection, schedule: Q01DX009 (ip), vehicle: Klucel (hydroxypropylcellulose) (HPC)): 0 of 6

CC(=O)c1cccc(N=NN(C)C)c1
T/C (T/C endpoint: mean survival time, dose: 46.0 mg/kg/injection, schedule: Q01DX009 (ip), vehicle: Klucel (hydroxypropylcellulose) (HPC)): 133 % of control | T/C (T/C endpoint: mean survival time, dose: 69.0 mg/kg/injection, schedule: Q01DX009 (ip), vehicle: Klucel (hydroxypropylcellulose) (HPC)): 145 % of control | survivor count (T/C endpoint: mean survival time, dose: 240.0 mg/kg/injection, schedule: Q01DX009 (ip), vehicle: Klucel (hydroxypropylcellulose) (HPC)): 5 of 6

CC(=O)OCC1OC([Se][As](C)C)C(OC(C)=O)C(OC(C)=O)C1OC(C)=O (configuration not stated)
survivor count (T/C endpoint: mean survival time, dose: 25.0 mg/kg/injection, schedule: Q01DX001 (ip), vehicle: saline with Tween-80): 2 of 6 | survivor count [4]: 1 of 6 | survivor count [5]: 0 of 6 | survivor count [6]: 0 of 6

O=[N+]([O-])CC(OCCO)C(Cl)(Cl)Cl (configuration not stated)
survivor count (T/C endpoint: mean survival time, dose: 35.0 mg/kg/injection, schedule: Q01DX009 (ip), vehicle: saline with Tween-80): 0 of 6 | survivor count (T/C endpoint: mean survival time, dose: 50.0 mg/kg/injection, schedule: Q04DX003 (ip), vehicle: acetone): 2 of 6 | survivor count (T/C endpoint: mean survival time, dose: 55.0 mg/kg/injection, schedule: Q01DX009 (ip), vehicle: saline with Tween-80): 0 of 6 | survivor count (T/C endpoint: mean survival time, dose: 80.0 mg/kg/injection, schedule: Q01DX009 (ip), vehicle: saline with Tween-80): 0 of 6

CCCCCCCCCCCCNCCC#N
survivor count [7]: 0 of 6

N/C(=N\O)c1ncn(C2CCCC2)c1N
survivor count [8]: 3 of 6

O=c1[nH][nH]c(=O)c2c1oc1c(=O)[nH][nH]c(=O)c12
survivor count [4]: 2 of 6

CCCCCCC[CH2][Sn]1([CH2]CCCCCCC)[O]CC2OC(n3cc(C)c(=O)[nH]c3=O)CC2[O]1 (configuration not stated)
survivor count (T/C endpoint: mean survival time, dose: 100.0 mg/kg/injection, schedule: Q01DX005 (ip), vehicle: other): 3 of 6 | survivor count (T/C endpoint: mean survival time, dose: 200.0 mg/kg/injection, schedule: Q01DX005 (ip), vehicle: other): 0 of 6

Cc1sc2ncnc(Cl)c2c1C
survivor count [5]: 3 of 6 | survivor count [6]: 0 of 6

O=C(O)C(=O)O.[NH-]CC(O)CN(CC(O)CO)c1ccccc1.[Pt+2] (configuration not stated)
survivor count (T/C endpoint: median survival time, dose: 80.0 mg/kg/injection, schedule: Q04DX003 (ip), vehicle: distilled water + Tween-80): 4 of 6 | survivor count (T/C endpoint: median survival time, dose: 160.0 mg/kg/injection, schedule: Q04DX003 (ip), vehicle: distilled water + Tween-80): 0 of 6 | survivor count (T/C endpoint: median survival time, dose: 320.0 mg/kg/injection, schedule: Q04DX003 (ip), vehicle: distilled water + Tween-80): 0 of 6

COc1ccc(S(=O)(=O)N=N/C=C2\C=CC=CN2O)cc1OC
T/C (T/C endpoint: median survival time, dose: 25.0 mg/kg/injection, schedule: Q01DX009 (ip), vehicle: saline with Tween-80): 106, 108, 109, 111 % of control | T/C (T/C endpoint: median survival time, dose: 50.0 mg/kg/injection, schedule: Q01DX009 (ip), vehicle: saline with Tween-80): 106, 109 [5 of 6 alive], 114, 118 % of control | T/C (T/C endpoint: median survival time, dose: 75.0 mg/kg/injection, schedule: Q01DX009 (ip), vehicle: saline with Tween-80): 134 % of control | T/C (T/C endpoint: median survival time, dose: 100.0 mg/kg/injection, schedule: Q01DX009 (ip), vehicle: saline with Tween-80): 125 and 137 % of control | survivor count (T/C endpoint: median survival time, dose: 200.0 mg/kg/injection, schedule: Q01DX009 (ip), vehicle: saline with Tween-80): 0 of 6 and 1 of 6

CCCC(C(CC)CN(C)C)N(C)C (configuration not stated)
survivor count (T/C endpoint: mean survival time, dose: 50.0 mg/kg/injection, schedule: Q04DX002 (ip), vehicle: saline with Tween-80): 2 of 6 | survivor count [9]: 0 of 6 | survivor count [5]: 0 of 6

O=c1oc(-c2cccc([N+](=O)[O-])c2)nc2ccccc12
survivor count [7]: 0 of 6

CCCCCCCC/C=C/CCCCCC1CCCC(C)N1 (configuration not stated)
survivor count [9]: 0 of 3 | survivor count [10]: 0 of 3 and 3 of 3 | survivor count [11]: 0 of 3 (2×)

Cc1ccc(S(=O)(=O)N/N=C/c2ccncc2)cc1
survivor count (T/C endpoint: mean survival time, dose: 400.0 mg/kg/injection, schedule: Q01DX009 (ip), vehicle: Klucel (hydroxypropylcellulose) (HPC)): 5 of 6

COc1ccc(C[As+](c2ccccc2)(c2ccccc2)c2ccccc2)cc1
survivor count (T/C endpoint: mean survival time, dose: 75.0 mg/kg/injection, schedule: Q01DX001 (ip), vehicle: saline): 0 of 6 | survivor count (T/C endpoint: mean survival time, dose: 80.0 mg/kg/injection, schedule: Q01DX001 (ip), vehicle: saline): 0 of 6 | survivor count (T/C endpoint: mean survival time, dose: 150.0 mg/kg/injection, schedule: Q01DX001 (ip), vehicle: saline): 0 of 6 | survivor count [12]: 0 of 6

CCN=NNc1ccc(C)cc1
survivor count [3]: 2 of 6 | survivor count [7]: 2 of 6

O=C1C2C3CC4C2C(Br)C2C1C3C42 (configuration not stated)
survivor count [9]: 2 of 3 | survivor count [10]: 0 of 3

CC1(c2ccc(Cl)cc2)OC(=O)C(=Cc2ccc([N+](=O)[O-])s2)C(=O)O1 (configuration not stated)
survivor count [3]: 4 of 6

CCCSc1ccccc1
survivor count [1]: 1 of 6

CC(=O)NC(C(=O)O)C(C)C.CC(=O)NC(C(=O)O)C(C)C.[NH-]C1CCCCC1[NH-].[Pt+2] (configuration not stated)
T/C (T/C endpoint: median survival time, dose: 50.0 mg/kg/injection, schedule: Q04DX003 (ip), vehicle: saline): 127 % of control | T/C (T/C endpoint: median survival time, dose: 100.0 mg/kg/injection, schedule: Q04DX003 (ip), vehicle: saline): 125, 130, 137, 149 % of control

C1CCC(N=C(NC2CCCCC2)NC2CCCCC2)CC1
survivor count [7]: 0 of 3

O=C(c1ccccc1)C(C(c1ccccc1)N1CCOCC1)N1CCOCC1 (configuration not stated)
survivor count [2]: 6 of 6

O=C1/C(=C\c2ccccc2)C2OCC=C3CN4CCC56c7ccccc7N1C5C2C3CC46 (configuration not stated)
survivor count (T/C endpoint: mean survival time, dose: 150.0 mg/kg/injection, schedule: Q01DX001 (ip), vehicle: other): 0 of 6 | survivor count [8]: 0 of 6

c1ccc2c(c1)C1c3cccc[n+]3C2C2C1CC1C3c4ccccc4C(C12)[n+]1ccccc13 (configuration not stated)
survivor count (T/C endpoint: mean survival time, dose: 25.0 mg/kg/injection, schedule: Q04DX003 (ip), vehicle: saline): 6 of 6 | survivor count (T/C endpoint: mean survival time, dose: 50.0 mg/kg/injection, schedule: Q04DX003 (ip), vehicle: saline): 2 of 6

O=C(COc1ccc(Cl)cc1Cl)OCCI
survivor count [11]: 0 of 3

O=C(O)c1c(F)c(F)c(F)c(Br)c1F
survivor count [7]: 2 of 6

C=C(NC(C)=O)C(=O)O
survivor count (T/C endpoint: mean survival time, dose: 400.0 mg/kg/injection, schedule: Q01DX009 (ip), vehicle: saline with Tween-80): 4 of 6

C#CCCCOC(=O)Nc1ccccc1
survivor count (T/C endpoint: mean survival time, dose: 400.0 mg/kg/injection, schedule: Q04DX003 (ip), vehicle: Klucel (hydroxypropylcellulose) (HPC)): 1 of 6

CC(=O)N(/C=C\C=C\c1sc2ccccc2[n+]1C)c1ccccc1
survivor count (T/C endpoint: mean survival time, dose: 50.0 mg/kg/injection, schedule: Q01DX009 (ip), vehicle: other): 2 of 6 | survivor count (T/C endpoint: mean survival time, dose: 100.0 mg/kg/injection, schedule: Q01DX009 (ip), vehicle: other): 1 of 6 | survivor count (T/C endpoint: mean survival time, dose: 200.0 mg/kg/injection, schedule: Q01DX009 (ip), vehicle: other): 0 of 6

CN(Cc1ccccc1)/C(N)=N/N
survivor count [12]: 2 of 6

c1ccc(Sc2ccncc2)cc1
survivor count [10]: 1 of 3 | survivor count [11]: 0 of 3
